Whole data set: some 33,000 sequences, median “E-score (-0.5 to 0.5)” near -0.0014, cut for the highest 2% near 0.25. The list shows a part of the results.
What follows are sequences tested against T1, Cad1 (UniProt P24813) (assay: PBM E-score (8-mer binding enrichment) (E-score (-0.5 to 0.5)); higher = stronger / more preferred TF binding). Details: protein concentration: 100 nM; construct: GST-full length.
T1 sequence: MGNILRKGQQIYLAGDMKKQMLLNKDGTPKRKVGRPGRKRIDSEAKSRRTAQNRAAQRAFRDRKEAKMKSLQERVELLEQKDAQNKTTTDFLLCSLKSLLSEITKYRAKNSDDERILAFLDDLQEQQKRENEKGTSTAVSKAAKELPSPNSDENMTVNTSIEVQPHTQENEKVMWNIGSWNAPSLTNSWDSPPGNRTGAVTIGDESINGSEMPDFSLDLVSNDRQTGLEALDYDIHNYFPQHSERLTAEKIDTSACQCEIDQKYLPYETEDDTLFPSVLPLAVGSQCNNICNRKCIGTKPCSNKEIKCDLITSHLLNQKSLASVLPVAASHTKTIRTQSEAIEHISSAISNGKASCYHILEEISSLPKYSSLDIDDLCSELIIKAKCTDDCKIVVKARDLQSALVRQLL
Method: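 Universal 'all 10-mer' protein binding microarrays (Agilent AMADID 015681) probed with GST-tagged S. cerevisiae TFs (full-length or DBD) made by in vitro transcription/translation (PURExpress), about 100-200 nM. Bound TF was detected with fluorescent anti-GST. Each ungapped 8-mer (which stands for itself and its reverse complement) is scored by the PBM enrichment score (E-score), a modified Wilcoxon-Mann-Whitney statistic from -0.5 to +0.5, computed with the Universal PBM Analysis Suite. Scale: above 0.35 generally sequence-specific binding.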

Sequence | PBM E-score
CAATGAAC | -0.00085
CTATCGTA | -0.0798
CAATTTTC | 0.125
AGATCCTC | -0.13
ACCATGAG | -0.194
CGATCCCA | -0.0615
AAGAAACT | -0.0723
ATCTGTTA | 0.154
AGGGGGCA | -0.327
CCTTATCC | -0.149
CCCCCTGA | -0.414
ACGAGCAA | -0.0425
ATTATGGC | 0.138
CAAAATGA | 0.0242
GTGGTATA | 0.0749
AACATAAT | 0.19
AATGTCGG | 0.0242
ACTCGATA | -0.0222
CATCGAAA | 0.0346
TATCATCA | 0.123
AATACGCG | 0.079
CCCCTATA | -0.144
AATGACCC | -0.191
CCAAAGCG | -0.0811
ATATTGGG | 0.0881

Sequence | PBM E-score
AGTTAACT | 0.0483
CATGTCAA | -0.0895
GAATCAGC | 0.0939
CAGGCCAA | -0.0389
AGAGCGCG | -0.0178
ATCTCAAC | 0.185
CCCTATTA | -0.0208
ACAGGGTG | -0.264
ACGAGTCT | -0.0978
CTGGCAGA | 0.0308
CACCAATC | -0.15
CACGTTAG | -0.116
CTACGTCA | -0.00864
ATCACGGA | 0.204
GTCAACTA | 0.0756
ACAGCGGT | -0.0875
GGCGTTAA | 0.0252
CCGTGTCG | -0.0349
ACAGAGCC | -0.108
ATGTGCCC | -0.071
CCTGAGTC | -0.0376
GAGAACGC | -0.0828
CTCGCCAA | -0.0361
CCGCATAG | -0.0749
GCTTAAAC | -0.048

Looked up above:
Value of CCCTATTA under PBM E-score: -0.0208
Value of CCGCATAG under PBM E-score: -0.0749

(cont.)

Sequence | PBM E-score
ACCATGTA | -0.00717
ATTTGGTG | -0.0697
ATTCCGTA | -0.0372
ATCACCGG | -0.0703
GTAATGAA | 0.0605
AAACCATT | -0.0299
AGGAGCAG | -0.229
CATTACTC | 0.0943
TCCCCTCA | -0.0995
GGAGAAGA | -0.19
AAGTCCCT | -0.204
GCGTTTAC | -0.0877
CGCCGTAA | 0.105
CTTTGCTA | -0.212
TAGCCCCA | 0.103
ACCATATG | -0.012
CGCGTGCC | 0.0655
CAGAAGAC | 0.0287
AGGTCCAG | 0.099
AAACTCGA | 0.00847
CTGCTCGA | -0.115
CCCCCTCC | -0.405
GTGAGGCA | -0.09
CTAAGGAA | 0.11
ACACATGG | -0.00572

Sequence | PBM E-score
ATAGGGCG | -0.0809
AGCGTTCG | -0.154
ACAGGTGG | -0.0628
CGCCCACA | 0.0534
ATAAGCCA | 0.063
CTATTGAC | 0.0653
CGTAAGAA | 0.014
AAGGTAGC | -0.123
CCTGCACG | -0.0479
ATGCTACA | -0.0425
AGTATAGC | 0.059
GATAATCC | 0.0936
AGAGCTGC | -0.127
AACCAAGC | 0.03
ATGCGTGA | 0.0985
ATGCTGTC | 0.0175
GCTCACGA | -0.0415
GATTGTCC | 0.0989
CCGCCGGA | 0.0323
CTATGGTA | -0.00468
ACAATATC | 0.185
CGGTCGGA | -0.00223
ACAGTTAC | 0.0388
AACCACGC | 0.00303
CGCGTACA | -0.008

Rewritten comma-delimited: part of the list above.
Sequence,PBM E-score
AACATAAT,0.19
CCCTATTA,-0.0208
CACGTTAG,-0.116
CCGCATAG,-0.0749
GCGTTTAC,-0.0877

The list goes on.

Sequence | PBM E-score
AGTGCGTC | -0.0502
GACCATAA | 0.0834
CGTAGACC | -0.216
TAAAGGAA | -0.0537
CTTACAGC | 0.0994
CCACTCAG | -0.085
CAACGGAG | -0.0641
CCCCGGAC | -0.244
CACCCGGA | 0.0199
GGAGGGAC | -0.17
CAGGACTG | -0.0875
CTTACTAC | 0.0721
ATCGCCCC | -0.262
CGATAGAC | 0.0203
ATTTTTGG | 0.0896
ACTAGTGC | 0.0304
CACACCCA | 0.0321
ACACTAAC | 0.199
CCGACGTA | -0.19
GTACTAAA | 0.054
CCTCCTAC | -0.242
GTCTCCAA | 0.0244
CCTTCATA | 0.037
GCCCCGCC | 0.168
CGTCGTGA | -0.0592

Part of the list above in another layout.
GTGGTATA
  PBM E-score = 0.0749
AACATAAT
  PBM E-score = 0.19
AATGTCGG
  PBM E-score = 0.0242
ACTCGATA
  PBM E-score = -0.0222

Carrying on.

Sequence | PBM E-score
ACTAACGA | 0.178
GTGCGCAA | 0.0688
ACCTTTGG | -0.31
GAGTTAGC | 0.119
AGGGGACT | -0.179
GCAACTAA | 0.139
CGTTTCGC | 0.0794
TCCCTCGA | -0.025
CGAACGCG | 0.138
CAAGAAGC | 0.0604
AGGCCTCA | -0.24
AGTAAACA | 0.182
GTCGTCTA | -0.0931
CAGCATGG | 0.0302
GAAATACC | 0.157
GAAGCCCC | -0.22
CAGCGAGC | 0.159
ATAGGAAT | -0.0155
AGGCAGGG | -0.133
AGGAGAGG | -0.343
CTCTGTAC | -0.0443
ATCAGAAT | 0.0378
CTACGTTC | -0.115
ACGCACCC | -0.147
AGCAATCA | 0.216

Sequence | PBM E-score
GAACGCTC | 0.0305
AGCCCGCC | -0.0425
ATATGACC | -0.0229
CTTCATGA | 0.207
ACTAACTG | 0.0989
GACATACA | 0.174
ACCCTCGG | -0.201
CATACTGA | 0.103
CATTTGTC | 0.169
GTAGAGGA | -0.258
CATGAGGG | -0.323
GCCAGAGA | -0.0334
AAGGAGGA | -0.254
GAAGGTTA | -0.00292
GCCACTGA | -0.213
CCCTTGAG | 0.0254
ATAACTTC | 0.144
AACGTCTA | 0.0127
GGAAAATA | 0.17
GAGCCTGA | -0.0223
CCATAACG | 0.00169
AAATACCT | 0.0991
